Test [1] deals with hsMis18β_(56–183), Yippee‐like globular domain of human Mis18β (human) (UniProt O43482). Kind of test: SEC-MALS; room temperature; 100 μl of protein at 1 mg/ml; 50 mM HEPES pH 8, 150 mM NaCl, 5 mM DTT; elution volumes of SEC also told; both purified. Background: SEC sorts molecules by how far they enter the pores of the column.
Test [2] deals with T1, endogenous spMis18fl with a C‐terminal 8xMyc tag (Schizosaccharomyces pombe) (UniProt Q9P802).
T1 sequence: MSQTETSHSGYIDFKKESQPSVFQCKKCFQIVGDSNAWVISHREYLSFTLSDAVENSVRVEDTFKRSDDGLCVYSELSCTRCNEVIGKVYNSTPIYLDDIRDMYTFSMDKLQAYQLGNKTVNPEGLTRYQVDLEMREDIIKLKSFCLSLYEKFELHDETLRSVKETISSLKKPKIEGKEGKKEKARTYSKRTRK
Kind of test: co-IP; S. pombe cells grown 21 h without thiamine; immunoprecipitation with anti-myc A14, blot with anti-GFP and anti-myc.

Chains of the proteins cited; added tags and fusions are not shown. Residues count along the entry.
UniProt O43482, residues 56-183: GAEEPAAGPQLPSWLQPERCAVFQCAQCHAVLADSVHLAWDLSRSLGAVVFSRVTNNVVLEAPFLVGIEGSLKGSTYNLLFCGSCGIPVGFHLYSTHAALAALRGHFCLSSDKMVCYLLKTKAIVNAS

The target of test [3] is T2, His‐GFP‐spMis18_(C‐term‐α), C‐terminal α‐helical domain of S. pombe Mis18 (Schizosaccharomyces pombe) (UniProt Q9P802).
T2 sequence: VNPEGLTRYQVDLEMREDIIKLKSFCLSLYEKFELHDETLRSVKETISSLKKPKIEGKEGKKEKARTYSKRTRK
Kind of test: SEC; equimolar mixture of the two purified proteins on Superdex 200 increase 10/300; 20 mM Tris pH 8, 150 mM NaCl, 2 mM DTT; fractions on SDS-PAGE; both purified.

Positions count from the first letter of the chain named. These are yes or no findings as the source states them, for the method shown. For some assays here: In cells and extracts the contact can be indirect. Some binding calls cover weakened binding; strength is not graded here. For some assays here: Tags and fused reporters may be left off the sequences shown.

For the molecule “hsMis18β_(56–183), Yippee‐like globular domain of human Mis18β (from UniProt O43482 56-183) (domain or fragment)”, in test [1], the binding entry is recorded as “no binding (tested: 1 mg/ml loaded)”.

B1: spMis18_(MeDiY)‐GFP, ectopically expressed (domain or fragment, UniProt Q9P802 1-120)
chain: MSQTETSHSGYIDFKKESQPSVFQCKKCFQIVGDSNAWVISHREYLSFTLSDAVENSVRVEDTFKRSDDGLCVYSELSCTRCNEVIGKVYNSTPIYLDDIRDMYTFSMDKLQAYQLGNKT
Take B1: the binding entry in test [2] is listed as “binds”.

B2: His‐spMis18_(1–120), N‐terminal Yippee‐like globular domain of S. pombe Mis18 (domain or fragment, Schizosaccharomyces pombe, UniProt Q9P802 1-120, looked up)
chain: B1 chain
Regarding B2, the binding result in test [3] is recorded as “no binding”.

B3: His‐GFP‐spMis18fl, recombinant full‐length S. pombe Mis18 (natural protein, Schizosaccharomyces pombe, UniProt Q9P802 1-194, looked up)
chain: T1 sequence
On to B3, for which the binding result in test [2] is given as “binds”.

B4: spMis18flI31A‐GFP, ectopically expressed (protein, UniProt Q9P802 1-194)
chain: T1 sequence with I31A
B4: in test [2], the binding result was “binds”.
